{"source": "patent US7078398B2", "about": "“Compositions and methods for treating or preventing convulsions or seizures” (Vela Pharamaceuticals, Inc., priority 2001, dated 2006)", "system": "picrotoxin-induced seizures in male NSA mice", "assay": "animal or person", "assay_type": "in vivo", "conditions": "Mus musculus, i.p. 15 minutes prior to picrotoxin 5 mg/kg s.c.", "protocol": "Anticonvulsant activity against picrotoxin-induced seizures is considered evidence of clinical antiepileptic potential and reason for further evaluation of a test compound's anticonvulsant profile (Swinyard, E. A. et al., General principles: experimental detection, quantification and evaluation of anticonvulsants. In: Antiepileptic Drugs, D. M. Woodbury et al., eds. Raven Press, New York (1990) pp. 111–126).\nPicrotoxin (5 mg/kg, Sigma Chem. Co., St. Louis, Mo., USA) was dissolved in saline and administered subcutaneously to induce seizures. In addition, picrotoxin alone was administered to seven animals as a control. All test drugs were dissolved in dimethylsulfoxide (DMSO).\nAfter picrotoxin injection, mice were placed into a plexiglass cage for 30 minutes of observation. The appearance of seizures was defined as the presence of a single episode of clonic or tonic activity (including myoclonic jerks) during the 30 minute observation period. […] Animals were euthanized immediately after the observation period by CO2 inhalation. The ED50 (the dose of test compound at which half of the animals were protected against picrotoxin-induced seizures) values and their 95% confidence limits were calculated by the method of Litchfield and Wilcoxon (J. Pharmacol. Exp. Ther. 96:99–113 (1949)).", "note": "Where two headings read alike, the source gives them in different places."}
{"smiles": "CN1C(=O)CN=C(c2ccccc2)c2cc(Cl)ccc21", "note": "[diazepam]", "values": [{"measurement": "ED50", "setting": "read-out: ED50 (95% confidence limit), Example 2, enantiomers of Example 1, 30 minute observation", "result": 0.52, "unit": "mg/kg"}, {"measurement": "ED50", "setting": "read-out: ED50 (95% confidence limit), Example 4, enantiomers of Example 3", "result": 0.45, "unit": "mg/kg"}]}
